# Record: PubChem BioAssay AID1224830 (NIAID, 2016)
# Aim: 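Host factors that control LPS-induced TNF expression in human macrophages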 (primary screen)
# Cell system: human THP-1 monocytic leukaemia cells, TNF dual-luciferase reporter clone, PMA-differentiated to macrophage-like cells
# Knock-down reagent: siRNA pool against human genes, 50 nM
# Timing: LPS for 4 h, given about 3 days after siRNA transfection
# Conditions: bacterial LPS (TLR4 ligand), 10 ng/ml
# Measured: 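TNF firefly reporter luminescence divided by renilla, normalised to the plate median, then turned into a robust z-score for each replicate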
# Scale: TNF reporter robust z-score: higher = stronger TNF reporter response to LPS
# Hit rule: 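Each well counts as active if its z-score is over 2.8 or under -1.5; controls are left without a call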
# This is an unselected part of about 18,000 reagents. Over the whole deposit, about 2,900 (16%) were called active. 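Calls are made per well; low scores hint the gene aids the LPS response, high scores that it dampens it.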 Repeated entries: four replicate wells of each siRNA pool.
target gene,PubChem SID,TNF reporter robust z-score,call
AHCYL2,SID315455199,-0.54,inactive
AHCYL2,SID315455199,-0.06,inactive
AHCYL2,SID315455199,0.04,inactive
AHCYL2,SID315455199,-0.92,inactive
PAX8,SID315452324,1.14,inactive
PAX8,SID315452324,0.06,inactive
PAX8,SID315452324,-0.44,inactive
PAX8,SID315452324,0.05,inactive
CUL4A,SID315452570,-0.61,inactive
CUL4A,SID315452570,-0.08,inactive
CUL4A,SID315452570,-0.76,inactive
CUL4A,SID315452570,0.31,inactive
NANOS1,SID315464102,-0.76,inactive
NANOS1,SID315464102,0.33,inactive
NANOS1,SID315464102,-0.43,inactive
NANOS1,SID315464102,0.92,inactive
MAU2,SID315455200,-0.82,inactive
MAU2,SID315455200,-0.23,inactive
MAU2,SID315455200,-0.13,inactive
MAU2,SID315455200,-0.11,inactive
TM6SF2,SID315456910,1.04,inactive
TM6SF2,SID315456910,1.43,inactive
TM6SF2,SID315456910,-0.22,inactive
TM6SF2,SID315456910,0.85,inactive
IRX4,SID315456353,-0.4,inactive
IRX4,SID315456353,-0.57,inactive
IRX4,SID315456353,-0.65,inactive
IRX4,SID315456353,-0.25,inactive
SCRN1,SID315453580,0.14,inactive
SCRN1,SID315453580,-1.17,inactive
SCRN1,SID315453580,0.15,inactive
SCRN1,SID315453580,0.31,inactive
LAMB4,SID315454783,1.15,inactive
LAMB4,SID315454783,1.49,inactive
LAMB4,SID315454783,1.64,inactive
LAMB4,SID315454783,2.33,inactive
OR7C2,SID315455834,0.24,inactive
OR7C2,SID315455834,0.87,inactive
OR7C2,SID315455834,0.69,inactive
OR7C2,SID315455834,-0.89,inactive
TUBG2,SID315455962,-0.66,inactive
TUBG2,SID315455962,-0.36,inactive
TUBG2,SID315455962,-0.37,inactive
TUBG2,SID315455962,-0.56,inactive
RTBDN,SID315460018,-0.23,inactive
RTBDN,SID315460018,-0.33,inactive
RTBDN,SID315460018,-0.02,inactive
RTBDN,SID315460018,-0.1,inactive
STIL,SID315451432,1.47,inactive
STIL,SID315451432,0.68,inactive
STIL,SID315451432,1.66,inactive
STIL,SID315451432,0.45,inactive
RNASE3,SID315451141,0.79,inactive
RNASE3,SID315451141,0.02,inactive
RNASE3,SID315451141,0.61,inactive
RNASE3,SID315451141,0.38,inactive
NRARP,SID315464943,-0.49,inactive
NRARP,SID315464943,-0.66,inactive
NRARP,SID315464943,-1.16,inactive
NRARP,SID315464943,-0.47,inactive
ZNF57,SID315461697,1.22,inactive
ZNF57,SID315461697,-0.47,inactive
ZNF57,SID315461697,0.22,inactive
ZNF57,SID315461697,-0.11,inactive
TIMP2,SID315451879,-0.87,inactive
TIMP2,SID315451879,-1.12,inactive
TIMP2,SID315451879,-0.69,inactive
TIMP2,SID315451879,-0.22,inactive

Entries listed so far whose gene name begins with P or p:
target gene,PubChem SID,TNF reporter robust z-score,call
PAX8,SID315452324,1.14,inactive
PAX8,SID315452324,0.06,inactive
PAX8,SID315452324,-0.44,inactive
PAX8,SID315452324,0.05,inactive

Further results:
target gene,PubChem SID,TNF reporter robust z-score,call
PCDH11Y,SID315459981,-0.59,inactive
PCDH11Y,SID315459981,-0.11,inactive
PCDH11Y,SID315459981,-0.44,inactive
PCDH11Y,SID315459981,0.79,inactive
SPOCD1,SID315460865,0.93,inactive
SPOCD1,SID315460865,-0.29,inactive
SPOCD1,SID315460865,-0.94,inactive
SPOCD1,SID315460865,-0.81,inactive
AGPAT3,SID315458138,0.49,inactive
AGPAT3,SID315458138,1.72,inactive
AGPAT3,SID315458138,0.58,inactive
AGPAT3,SID315458138,0.5,inactive
TMSB10,SID315453095,-1.73,active
TMSB10,SID315453095,-0.08,inactive
TMSB10,SID315453095,-1,inactive
TMSB10,SID315453095,-1.08,inactive
EPC2,SID315455677,1.06,inactive
EPC2,SID315455677,-0.61,inactive
EPC2,SID315455677,1.11,inactive
EPC2,SID315455677,0.87,inactive
CA1,SID315447642,0.51,inactive
CA1,SID315447642,0.62,inactive
CA1,SID315447642,0.71,inactive
CA1,SID315447642,1.39,inactive
ATP2C1,SID315455885,-1.04,inactive
ATP2C1,SID315455885,-0.31,inactive
ATP2C1,SID315455885,-1.01,inactive
ATP2C1,SID315455885,-0.81,inactive
PALLD,SID315454933,-0.87,inactive
PALLD,SID315454933,-1.35,inactive
PALLD,SID315454933,-1.08,inactive
PALLD,SID315454933,-1.44,inactive
WFDC1,SID315458616,-0.09,inactive
WFDC1,SID315458616,-1.05,inactive
WFDC1,SID315458616,-1.41,inactive
WFDC1,SID315458616,-1.25,inactive
G6PC2,SID315458595,-0.69,inactive
G6PC2,SID315458595,0.22,inactive
G6PC2,SID315458595,0.12,inactive
G6PC2,SID315458595,0.51,inactive
PRB1,SID315450774,0.39,inactive
PRB1,SID315450774,0.53,inactive
PRB1,SID315450774,-0.9,inactive
PRB1,SID315450774,-0.84,inactive
DAZ2,SID315458241,0.13,inactive
DAZ2,SID315458241,0.32,inactive
DAZ2,SID315458241,0.97,inactive
DAZ2,SID315458241,-0.14,inactive
RAPGEF5,SID315453551,-1.45,inactive
RAPGEF5,SID315453551,-0.69,inactive
RAPGEF5,SID315453551,-0.9,inactive
RAPGEF5,SID315453551,-0.15,inactive
SP6,SID315459751,-1.11,inactive
SP6,SID315459751,-0.93,inactive
SP6,SID315459751,-0.9,inactive
SP6,SID315459751,-1.03,inactive
MYL10,SID315461074,0.74,inactive
MYL10,SID315461074,0.61,inactive
MYL10,SID315461074,0.08,inactive
FBXO10,SID315455747,0.61,inactive
FBXO10,SID315455747,2.17,inactive
FBXO10,SID315455747,3.17,active
FBXO10,SID315455747,0.53,inactive
CD28,SID315447776,-1.81,active
CD28,SID315447776,-0.97,inactive
CD28,SID315447776,-0.94,inactive
CD28,SID315447776,1.87,inactive
NDUFAF1,SID315456472,0.09,inactive
NDUFAF1,SID315456472,-0.15,inactive
NDUFAF1,SID315456472,-0.67,inactive
NDUFAF1,SID315456472,-0.9,inactive
UQCRC1,SID315452083,1.66,inactive
UQCRC1,SID315452083,2.41,inactive
UQCRC1,SID315452083,0.37,inactive
UQCRC1,SID315452083,0.41,inactive
